The values that follow come from paper doi:10.1101/2025.09.18.676997.

No constants are given. Whether binding was seen depends on the method and setting. Binding seen in cells or lysates may run through a third protein. Some results given as binding are weak or reduced against the parent protein; the word gives no strength.

The target in this assay is Serum Response Factor (SRF) wild type (human) (UniProt P11831). In words: co-IP.

B1: Serum Response Factor (SRF) wild type (protein, UniProt P11831 1-508)
chain: MLPTQAGAAAALGRGSALGGSLNRTPTGRPGGGGGTRGANGGRVPGNGAGLGPGRLEREAAAAAATTPAPTAGALYSGSEGDSESGEEEELGAERRGLKRSLSEMEIGMVVGGPEASAAATGGYGPVSGAVSGAKPGKKTRGRVKIKMEFIDNKLRRYTTFSKRKTGIMKKAYELSTLTGTQVLLLVASETGHVYTFATRKLQPMITSETGKALIQTCLNSPDSPPRSDPTTDQRMSATGFEETDLTYQVSESDSSGETKDTLKPAFTVTNLPGTTSTIQTAPSTSTTMQVSSGPSFPITNYLAPVSASVSPSAVSSANGTVLKSTGSGPVSSGGLMQLPTSFTLMPGGAVAQQVPVQAIQVHQAPQQASPSRDSSTDLTQTSSSGTVTLPATIMTSSVPTTVGGHMMYPSPHAVMYAPTSGLGDGSLTVLNAFSQAPSTMQVSHSQVQEPGGVPQVFLTASSGTVQIPVSAVQLHQMAVIGQQAGSSSNLTELQVVNLDTAHSTKSE
In the case of B1, the binding result was “binds”.
